Data on 58 sequences can be found in the supplement of paper PMC10338343.

± gives the standard deviation. The list shows a part of the results, in another mix than the full data. Many of these values have a large error.

Experiment [1] relates to MILI (PIWIL2) piRISC loaded with piRNA #1 (26 nt). Nature of the experiment: pre-steady-state target cleavage rate (min^-1); MIWI and MILI are mouse PIWI proteins and EfPiwi is from a freshwater sponge; tags in brackets are library labels; higher = faster piRNA-guided slicing of the target. As to conditions: guide: piRNA #1 5'p-UGAGGUAGUAGGUUGUAUAGUAUCCA; auxiliary factor: 500 nM mouse GTSF1. A digest of the protocol: (§1)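 The pre-steady-state cleavage rate was derived from a burst-and-steady-state fit of Cleave-'n-Seq data. For these assays, 1 nM active affinity-purified piRISC loaded with a single synthetic guide was mixed with […] a transcribed, DNA-blocked target RNA library in HEPES–potassium acetate buffer at 33 °C, with or without 500 nM GTSF1 partner protein, for 0–8 or 0–960 min. Sequencing counts of uncleaved targets were normalised to depth and to weakly complementary targets, and k3 was capped at 0.0001 min^-1 after three trials were pooled.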

The subject of experiment [2] is MIWI (PIWIL1) piRISC loaded with piRNA #1 (30 nt). Described as above. As to conditions: guide: piRNA #1 5'p-UGAGGUAGUAGGUUGUAUAGUAUCCAGAGG; auxiliary factor: 500 nM mouse GTSF1. The method in brief: as §1
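Also: 1 nM active piRISC with 0.1 nM target library at 33 °C single turnover.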

Take GGAGACCGUACUAUACAACCUACUACCUCA: in experiment [1], the “pre-steady-state target cleavage rate” value is 0.157 ± 0.021.

For GGAGACCUAUGAUAACAACCUACUAGCUGA, the “pre-steady-state target cleavage rate” value in experiment [1] stood at 0.000616 ± 0.0087.

For the sequence GGAGACCUAACUAUUCAACCUUCUACCUCA, the “pre-steady-state target cleavage rate” value in experiment [1] is 0.00422 ± 0.0049.

On to GGAGACCUAUGAUAACAACGAACUACCUCA, for which the “pre-steady-state target cleavage rate” value in experiment [1] came out at 0.000256 ± 0.01.

As for GGAGACCAUACUAUACAACGAUCUACCUCA, the “pre-steady-state target cleavage rate” value in experiment [1] is less than 0.0001.

In the case of GGAGACGAUACGAUACAACCUACUACCUCA, the “pre-steady-state target cleavage rate” value in experiment [1] worked out at 0.193 ± 0.018.

In the case of “GGAGACCUAUCUAUACUUGGAUGAUGGAGA [g15:g20:cont:t1A]”, the “pre-steady-state target cleavage rate” value was found to be 0.000213 ± 0.017 in experiment [1] and 0.000351 ± 0.0092 in experiment [2].

In the case of GGAGUGGAUACUAUACAACCAUACUACCUCA, the results for the “pre-steady-state target cleavage rate” value in experiment [1] and in experiment [2] were 0.00751 ± 0.003 and 0.00221 ± 0.0045, respectively.

In the case of “GGAGACCUAACUAUACUUGGAUGAUGGAGA [g15:g21:cont:t1A]”, the “pre-steady-state target cleavage rate” value in experiment [1] amounted to 0.000108 ± 0.089.

GGAGACCUAUGAUAACAACGUUCUACCUCA: the “pre-steady-state target cleavage rate” value in experiment [1] amounted to 0.000845 ± 0.0049; in experiment [2], 0.00039 ± 0.0094.

Consider GGAGACCUAUGUAUAGAACCUACUAGCUCA, for which the entries for the “pre-steady-state target cleavage rate” value in experiment [1] and in experiment [2] were 0.00212 ± 0.0036 and 0.000411 ± 0.0062, respectively.

For the sequence GGAGAGGAUACUAUCACAACCUACUACCUCA, the “pre-steady-state target cleavage rate” value in experiment [1] is 0.136 ± 0.011.

In the case of GGAGACCUAUGAUAUGAACCUUACUACCUCA, the “pre-steady-state target cleavage rate” value in experiment [1] stood at 0.000167 ± 0.02.

On to GGAGACCAUACUAUACAUACCUACUACCUCA, for which the results for the “pre-steady-state target cleavage rate” value in experiment [1] and in experiment [2] were 0.0032 ± 0.0048 and 0.000961 ± 0.011, respectively.

Regarding GGAGACCUAUGAUAUCAACCUACCACCUCA, the “pre-steady-state target cleavage rate” value in experiment [1] is 0.00245 ± 0.0042; in experiment [2], 0.000906 ± 0.006.

Consider GGAGACCUAUGAAUACAACCAUGUACCUCA, for which the entries for the “pre-steady-state target cleavage rate” value in experiment [1] and in experiment [2] were 0.000775 ± 0.0071 and 0.000876 ± 0.0046, respectively.

Consider GGAGACCAUACUAUACAACCUACUACUUCA, for which the figures for the “pre-steady-state target cleavage rate” value in experiment [1] and in experiment [2] were 0.189 ± 0.019 and 2.14 ± 0.14, respectively.

GGAGACCUAUGAUUACAACCUACUAACUCA: the “pre-steady-state target cleavage rate” value in experiment [1] is 0.00194 ± 0.0043; in experiment [2], 0.0026 ± 0.0043.

As to GGAGAGGAUACUAUACAACCUACUUCCUGA, in experiment [1], the “pre-steady-state target cleavage rate” value worked out at 0.00168 ± 0.0042.

As for GGAGACCUAUGAUAACAACCUACUACUCUCA, the “pre-steady-state target cleavage rate” value in experiment [1] was found to be 0.00358 ± 0.0038; in experiment [2], 0.00147 ± 0.0043.

Take GGAGACCUAUGUAUAGAACCUAGUACCUCA: the “pre-steady-state target cleavage rate” value was determined as 0.00162 ± 0.0038 in experiment [1] and 0.00117 ± 0.0035 in experiment [2].

Consider GGAGACCUAUGAUAUGAACCUACUACCCCA, for which the “pre-steady-state target cleavage rate” value in experiment [1] was less than 0.0001.

With GGAGACCUAUCUAUACAACCUCUACCUCA, the “pre-steady-state target cleavage rate” value amounted to 0.00105 ± 0.0087 in experiment [1] and 0.000606 ± 0.016 in experiment [2].

Regarding GGAGACCUAUGAUAUCUACCUACUACCUGA, the “pre-steady-state target cleavage rate” value in experiment [1] is less than 0.0001.

In the case of GGAGACCUAUGAAUUCAACCUACUUCCUCA, in experiment [1], the “pre-steady-state target cleavage rate” value was found to be 0.000222 ± 0.024.

For GGAGACCAUACAAUACAACCUACUACCUGA, the “pre-steady-state target cleavage rate” value in experiment [1] turned out to be 0.12 ± 0.019.

On to GGAGACCUAACUAUACAAGCUAGUACCUCA, for which the “pre-steady-state target cleavage rate” value in experiment [1] was 0.0871 ± 0.019.

As for GGAGACCUAUGAAUACGAACCUACUACCUCA, the figures for the “pre-steady-state target cleavage rate” value in experiment [1] and in experiment [2] were 0.000331 ± 0.013 and 0.000988 ± 0.0051, respectively.

For GGAGACCUAUGAUAACAACCUACUACCCCA, the “pre-steady-state target cleavage rate” value in experiment [1] was 0.00141 ± 0.006.

For GGAGACCUAUCUAUACAUGGUACUACCUCA, the “pre-steady-state target cleavage rate” value stood at 0.00194 ± 0.0048 in experiment [1] and 0.00274 ± 0.0041 in experiment [2].

Turning to GGAGACCAUACUAUACAAGGUACUACCUCA, the “pre-steady-state target cleavage rate” value in experiment [1] was 0.0713 ± 0.0087.

Regarding GGAGACCUAUCUAUACAACCUACUACCCA, the “pre-steady-state target cleavage rate” value in experiment [1] was 0.098 ± 0.019.

For “GGAGACCUAUGUAUACAACGAUGAUGGAGA [g12:g19:cont:t1A]”, in experiment [1], the “pre-steady-state target cleavage rate” value stood at 0.000293 ± 0.018.

Consider GGAGACCUAUGAAUACAACCUACUACGUGA, for which the “pre-steady-state target cleavage rate” value in experiment [1] is 0.00188 ± 0.0029; in experiment [2], 0.001 ± 0.0044.

GGAGACCUAUGAUUACUACCUACUACGUCA: the “pre-steady-state target cleavage rate” value was 0.00124 ± 0.0054 in experiment [1] and 0.000333 ± 0.0071 in experiment [2].

Consider GGAGACCUAUCUAUACCAACCUACUACCUCA, for which the “pre-steady-state target cleavage rate” value was determined as 0.00227 ± 0.0044 in experiment [1] and 0.000906 ± 0.0053 in experiment [2].

As for GGAGACCUAUGAUUAAAACCUACUACCUCA, the “pre-steady-state target cleavage rate” value in experiment [1] worked out at 0.000361 ± 0.0072.

Turning to GGAGUGGAUACUAUACAACCUACAACCACA, the results for the “pre-steady-state target cleavage rate” value in experiment [1] and in experiment [2] were 0.00154 ± 0.0035 and 0.00175 ± 0.003, respectively.

With GGAGUGGAUAUAUACAACCUACUACCUCA, the “pre-steady-state target cleavage rate” value in experiment [1] was 0.152 ± 0.01.

In the case of GGAGACCUAUGAAUACUACCUACUUCCUCA, the “pre-steady-state target cleavage rate” value in experiment [1] amounted to 0.0037 ± 0.0024; in experiment [2] it was 0.000183 ± 0.01.

For GGAGACCUAUGAUAUGUAGCUACUUCCUCA, the “pre-steady-state target cleavage rate” value in experiment [1] is 0.000302 ± 0.018.

As to GGAGACCUAUGAUAUCAACCUACUACGUGA, the “pre-steady-state target cleavage rate” value in experiment [1] was 0.000168 ± 0.013; in experiment [2], 0.000469 ± 0.0069.

Regarding GGAGACCUAUGAUAUCAACGUACUACCACA, the “pre-steady-state target cleavage rate” value in experiment [1] is 0.000773 ± 0.0094; in experiment [2], 0.000121 ± 0.025.

Turning to GGAGACCUAACUAUACAACCUUACUACCUCA, the entries for the “pre-steady-state target cleavage rate” value in experiment [1] and in experiment [2] were 0.00148 ± 0.011 and 0.00025 ± 0.02, respectively.

With GGAGACCAUACUAUACAACCCACUACCUCA, the “pre-steady-state target cleavage rate” value in experiment [1] is 0.0223 ± 0.0041.

GGAGUGGAUACUAUACAACCUACUAGGACA: the “pre-steady-state target cleavage rate” value in experiment [1] is 0.000453 ± 0.0073; in experiment [2], 0.000551 ± 0.0082.

Regarding GGAGACCUAUGAUAUCAACCUACUACCGCA, the “pre-steady-state target cleavage rate” value in experiment [1] was found to be 0.00141 ± 0.0051; in experiment [2] it was 0.000283 ± 0.011.

For GGAGACCUAUGAUAUGUUGCCACUACCUCA, the “pre-steady-state target cleavage rate” value in experiment [1] turned out to be 0.000826 ± 0.0077; in experiment [2], 0.00046 ± 0.0051.

GGAGAGGAUACUAUACAACCUACUUGGUCA: the “pre-steady-state target cleavage rate” value was 0.000761 ± 0.0068 in experiment [1] and 0.00091 ± 0.0045 in experiment [2].

With GGAGACCUAUGAUUUCAACCUACUUCCUCA, the “pre-steady-state target cleavage rate” value in experiment [1] worked out at 0.00132 ± 0.0043; in experiment [2], 0.000151 ± 0.015.

With GGAGACCUAUGAAUACAACCUACACCUCA, the entries for the “pre-steady-state target cleavage rate” value in experiment [1] and in experiment [2] were 0.000159 ± 0.019 and 0.000171 ± 0.014, respectively.

GGAGACCUAUGAUAUGAACCGUACUACCUCA: the “pre-steady-state target cleavage rate” value in experiment [1] amounted to 0.000392 ± 0.0064; in experiment [2] it was 0.000111 ± 0.027.

GGAGACCUAUGAUAUGUUGGUACUCCUCA: the entries for the “pre-steady-state target cleavage rate” value in experiment [1] and in experiment [2] were 0.000392 ± 0.009 and 0.000392 ± 0.0094, respectively.

Regarding GGAGACCUAUCUAAUGAACCUACUACCUCA, the figures for the “pre-steady-state target cleavage rate” value in experiment [1] and in experiment [2] were 0.00248 ± 0.0028 and 0.000248 ± 0.0082, respectively.

For GGAGACCUAUGAAUACAACCUACUACCCA, the results for the “pre-steady-state target cleavage rate” value in experiment [1] and in experiment [2] were 0.00166 ± 0.0043 and 0.000607 ± 0.0072, respectively.

As for GGAGACCUAUGAUAACUACCUACUUCCUCA, the “pre-steady-state target cleavage rate” value in experiment [1] came to 0.00205 ± 0.0038; in experiment [2], 0.000571 ± 0.0075.

On to GGAGACCUAUGAUAUCAACCUACUGACCUCA, for which the results for the “pre-steady-state target cleavage rate” value in experiment [1] and in experiment [2] were 0.00235 ± 0.0036 and 0.000961 ± 0.0058, respectively.

On to GGAGACCUAUGAUAUCAUCCUUCUACCUCA, for which the “pre-steady-state target cleavage rate” value in experiment [1] is 0.00121 ± 0.0054; in experiment [2], 0.00027 ± 0.0092.
